Compound in the test: Nc1ncnc2c1ncn2[C@@H]1O[C@H](COP(=O)(O)OP(=O)(O)OP(=O)(O)O)[C@@H](O)[C@H]1O [adenosine triphosphate]
Briefly: NP40-soluble protein abundance relative to vehicle (solubility fold change) (ratio); higher = more soluble protein in presence of ATP. The essentials:
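Jurkat crude lysate (Dounce-homogenised) was treated with eight concentrations from 0.1 to 10 mM for 10 min at room temperature, then 3 min at 37 °C. It was solubilised with 0.8% NP40 and benzonase (60 min, 4 °C) and ultracentrifuged, and the supernatant was TMT-labelled for LC-MS/MS. Intensities were vsn-normalised, and the value is the fold change against the NP40-processed vehicle per replicate, from three independent experiments.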

By UniProt entry, the sequences of proteins in these tests, tags left out. Where a name states a change or a piece, a line headed by the entry shows the natural chain unless it says otherwise.
UniProt Q8N766: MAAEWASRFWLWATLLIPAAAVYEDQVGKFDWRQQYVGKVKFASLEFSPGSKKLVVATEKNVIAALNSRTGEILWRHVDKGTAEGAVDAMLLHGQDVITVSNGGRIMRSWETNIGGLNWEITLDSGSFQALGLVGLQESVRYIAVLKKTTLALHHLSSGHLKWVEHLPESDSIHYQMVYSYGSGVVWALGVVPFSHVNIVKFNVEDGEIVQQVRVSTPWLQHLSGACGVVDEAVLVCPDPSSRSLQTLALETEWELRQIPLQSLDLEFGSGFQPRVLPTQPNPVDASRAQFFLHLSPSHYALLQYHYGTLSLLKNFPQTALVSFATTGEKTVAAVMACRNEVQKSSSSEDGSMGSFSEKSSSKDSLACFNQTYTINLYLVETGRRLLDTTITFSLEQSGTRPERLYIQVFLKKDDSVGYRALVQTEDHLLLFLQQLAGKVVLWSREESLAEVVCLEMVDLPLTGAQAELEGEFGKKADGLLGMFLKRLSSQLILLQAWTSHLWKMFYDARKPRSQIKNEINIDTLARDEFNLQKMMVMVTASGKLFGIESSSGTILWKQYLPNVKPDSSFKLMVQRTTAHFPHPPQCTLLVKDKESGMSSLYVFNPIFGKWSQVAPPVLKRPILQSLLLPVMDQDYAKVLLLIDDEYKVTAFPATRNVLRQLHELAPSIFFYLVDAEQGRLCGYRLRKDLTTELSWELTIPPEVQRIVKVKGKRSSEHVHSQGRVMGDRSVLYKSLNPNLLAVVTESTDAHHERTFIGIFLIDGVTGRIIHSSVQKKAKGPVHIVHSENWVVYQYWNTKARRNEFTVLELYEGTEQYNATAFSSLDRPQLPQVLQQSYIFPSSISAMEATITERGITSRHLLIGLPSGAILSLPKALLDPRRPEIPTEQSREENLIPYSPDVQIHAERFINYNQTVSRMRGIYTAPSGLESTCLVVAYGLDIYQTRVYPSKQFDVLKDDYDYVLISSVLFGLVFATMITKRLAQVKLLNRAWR
UniProt Q8N8A6: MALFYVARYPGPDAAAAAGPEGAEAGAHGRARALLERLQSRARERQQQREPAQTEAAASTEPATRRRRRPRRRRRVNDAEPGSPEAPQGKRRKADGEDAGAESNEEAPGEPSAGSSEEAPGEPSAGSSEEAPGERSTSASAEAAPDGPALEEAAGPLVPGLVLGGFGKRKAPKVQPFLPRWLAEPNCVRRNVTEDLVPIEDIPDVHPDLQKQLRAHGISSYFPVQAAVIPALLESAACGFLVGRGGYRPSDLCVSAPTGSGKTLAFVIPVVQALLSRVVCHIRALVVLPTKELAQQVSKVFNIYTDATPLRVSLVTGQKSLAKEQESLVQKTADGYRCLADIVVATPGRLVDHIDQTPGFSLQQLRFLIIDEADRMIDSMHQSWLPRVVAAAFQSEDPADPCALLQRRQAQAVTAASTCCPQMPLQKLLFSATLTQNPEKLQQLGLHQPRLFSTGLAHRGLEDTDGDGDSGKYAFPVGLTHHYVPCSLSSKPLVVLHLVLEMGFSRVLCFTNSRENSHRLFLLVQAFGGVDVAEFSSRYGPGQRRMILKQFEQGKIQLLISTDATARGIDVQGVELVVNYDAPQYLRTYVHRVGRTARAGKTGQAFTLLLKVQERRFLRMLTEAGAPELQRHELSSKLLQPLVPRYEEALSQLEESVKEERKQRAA

± gives the standard deviation of the averaged measurements. Only a part is listed here, and it is no random draw. Most values lie at the level of the controls, where differences are scatter.

As for UniProt Q8N766 and related entries, the NP40-soluble protein abundance (concentration: 0.1mM) turned out to be 0.976 ± 0.051; the NP40-soluble protein abundance (concentration: 0.5mM) turned out to be 0.996 ± 0.018; the NP40-soluble protein abundance (concentration: 1mM) was determined as 0.974 ± 0.082; the NP40-soluble protein abundance (concentration: 2mM) was 0.977 ± 0.065; the NP40-soluble protein abundance (concentration: 4mM) was 0.982 ± 0.056; the NP40-soluble protein abundance (concentration: 6mM) was found to be 0.878 ± 0.1. The NP40-soluble protein abundance runs as follows: (concentration: 8mM) 0.934 ± 0.013; (concentration: 10mM) 0.977 ± 0.052.

As for DDX51 (UniProt Q8N8A6), the NP40-soluble protein abundance was determined as 1.02 ± 0.027 (concentration: 0.1mM); 1.23 ± 0.08 (concentration: 0.5mM); 1.25 ± 0.021 (concentration: 1mM); 1.38 ± 0.085 (concentration: 2mM); 1.65 ± 0.15 (concentration: 4mM); 1.9 ± 0.22 (concentration: 6mM). The NP40-soluble protein abundance is, setting by setting: (concentration: 8mM) 2.05 ± 0.18; (concentration: 10mM) 2.29 ± 0.27.

Take “UniProt Q8N983-4|B1AL05 and related entries”: the NP40-soluble protein abundance was 0.937 ± 0.29 (concentration: 0.1mM) and 0.949 ± 0.32 (concentration: 0.5mM).

The values are drawn from the supplement of paper PMC6411743.
